Test results reported in paper PMC6976658.
Results are given in words; binding and its absence hold for the method and conditions named. Binding seen in cells or lysates may run through a third protein. Some entries that bind do so weakly or less than the wild type. Sequences can lack the tags named with a protein.

T1: GFP-SMAD4, Q13485
T1 chain: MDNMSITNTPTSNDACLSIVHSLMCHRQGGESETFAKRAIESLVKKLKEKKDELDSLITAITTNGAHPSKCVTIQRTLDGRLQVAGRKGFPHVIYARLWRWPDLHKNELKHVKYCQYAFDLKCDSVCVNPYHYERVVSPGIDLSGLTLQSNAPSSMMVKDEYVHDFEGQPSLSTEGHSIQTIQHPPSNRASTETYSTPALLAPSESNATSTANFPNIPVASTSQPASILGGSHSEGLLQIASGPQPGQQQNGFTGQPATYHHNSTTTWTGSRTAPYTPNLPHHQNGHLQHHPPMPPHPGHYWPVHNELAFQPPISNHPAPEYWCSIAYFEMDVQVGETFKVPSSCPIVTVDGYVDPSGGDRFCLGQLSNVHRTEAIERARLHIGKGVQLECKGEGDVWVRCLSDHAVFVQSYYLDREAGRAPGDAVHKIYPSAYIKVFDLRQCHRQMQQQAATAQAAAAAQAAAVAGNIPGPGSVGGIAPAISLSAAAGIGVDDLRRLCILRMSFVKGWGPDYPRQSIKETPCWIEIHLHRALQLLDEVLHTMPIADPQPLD


Biological target: T1, GFP-SMAD4, Q13485
Assay: co-IP; GFP immunoprecipitation from lysates of U2OS cells stably expressing GFP-SMAD4; cells incubated with DMSO, SB-505124 or MRT199665, with or without TGFβ1; immunoblotting of the precipitates
Conditions: remark: other sources report otherwise

binding	Binder
binds	SMAD2, Q15796 1-467 (protein) MSSILPFTPPVVKRLLGWKKSAGGSGGAGGGEQNGQEEKWCEKAVKSLVKKLKKTGRLDELEKAITTQNCNTKCVTIPSTCSEIWGLSTPNTIDQWDTTGLYSFSEQTRSLDGRLQVSHRKGLPHVIYCRLWRWPDLHSHHELKAIENCEYAFNLKKDEVCVNPYHYQRVETPVLPPVLVPRHTEILTELPPLDDYTHSIPENTNFPAGIEPQSNYIPETPPPGYISEDGETSDQQLNQSMDTGSPAELSPTTLSPVNHSLDLQPVTYSEPAFWCSIAYYELNQRVGETFHASQPSLTVDGFTDPSNSERFCLGLLSNVNRNATVEMTRRHIGRGVRLYYIGGEVFAECLSDSAIFVQSPNCNQRYGWHPATVCKIPPGCNLKIFNNQEFAALLAQSVNQGFEAVYQLTRMCTIRMSFVKGWGAEYRRQTVTSTPCWIELHLNGPLQWLDKVLTQMGSPSVRCSSMS
binds	SMAD3, P84022 1-425 (protein) MSSILPFTPPIVKRLLGWKKGEQNGQEEKWCEKAVKSLVKKLKKTGQLDELEKAITTQNVNTKCITIPRSLDGRLQVSHRKGLPHVIYCRLWRWPDLHSHHELRAMELCEFAFNMKKDEVCVNPYHYQRVETPVLPPVLVPRHTEIPAEFPPLDDYSHSIPENTNFPAGIEPQSNIPETPPPGYLSEDGETSDHQMNHSMDAGSPNLSPNPMSPAHNNLDLQPVTYCEPAFWCSISYYELNQRVGETFHASQPSMTVDGFTDPSNSERFCLGLLSNVNRNAAVELTRRHIGRGVRLYYIGGEVFAECLSDSAIFVQSPNCNQRYGWHPATVCKIPPGCNLKIFNNQEFAALLAQSVNQGFEAVYQLTRMCTIRMSFVKGWGAEYRRQTVTSTPCWIELHLNGPLQWLDKVLTQMGSPSIRCSSVS
